The other results are listed elsewhere or left out.
Columns and labels:
Assay in all cases: glycan array binding signal (z-score within array); higher = stronger binding
Conditions in all cases: glycan notation: IUPAC condensed, linker removed; mutation: D224N
[1] = target: Man(a1-2)Man(a1-3)[Man(a1-2)Man(a1-6)]Man
In short: (§1)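 Glycan array data were curated from 3228 arrays in the Consortium for Functional Glycomics database and kept only where the protein sequence was available. Glycan names were converted to IUPAC-condensed notation, and columns mapping to the same glycan were averaged. The binding signal is a within-array Z-score, averaged across arrays of the same protein sequence at different concentrations or buffers and across linkers. Negative Z-scores can be read as non-binding.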

[2] = target: Man(a1-2)Man(a1-3)[Man(a1-2)Man(a1-6)]Man(a1-6)[Man(a1-2)Man(a1-2)Man(a1-3)]Man
In short: as §1

[3] = target: Man(a1-2)Man(a1-3)[Man(a1-2)Man(a1-6)]Man(a1-6)[Man(a1-2)Man(a1-2)Man(a1-3)]Man(b1-4)GlcNAc(b1-4)GlcNAc
In short: as §1

[4] = target: Man(a1-2)Man(a1-3)[Man(a1-6)]Man(a1-6)[Man(a1-2)Man(a1-3)]Man(b1-4)GlcNAc(b1-4)GlcNAc
In short: as §1

[5] = target: Man(a1-2)Man(a1-6)[Man(a1-3)]Man(a1-6)[Man(a1-2)Man(a1-2)Man(a1-3)]Man
In short: as §1

[6] = target: Man(a1-2)Man(a1-6)[Man(a1-3)]Man(a1-6)[Man(a1-2)Man(a1-2)Man(a1-3)]Man(b1-4)GlcNAc(b1-4)GlcNAc
In short: as §1

[7] = target: Man(a1-3)[Man(a1-6)]Man
In short: as §1

[8] = target: Man(a1-3)[Man(a1-6)]Man(a1-6)[Man(a1-2)Man(a1-3)]Man(b1-4)GlcNAc(b1-4)GlcNAc
In short: as §1

[9] = target: Man(a1-3)[Man(a1-6)]Man(a1-6)[Man(a1-3)]Man
In short: as §1

[10] = target: Man(a1-3)[Man(a1-6)]Man(a1-6)[Man(a1-3)]Man(b1-4)GlcNAc(b1-4)GlcNAc
In short: as §1

[11] = target: Man(a1-3)[Man(a1-6)]Man(b1-4)GlcNAc(b1-4)GlcNAc
In short: as §1

[12] = target: Man(a1-3)[Man(a1-6)]Man(b1-4)GlcNAc(b1-4)[Fuc(a1-6)]GlcNAc
In short: as §1

[13] = target: Man(a1-6)Man
In short: as §1

[14] = target: Man(b1-4)GlcNAc
In short: as §1

[15] = target: MurNAc(b1-4)GlcNAc
In short: as §1

[16] = target: Neu5Ac(a2-3)Gal
In short: as §1

[17] = target: Neu5Ac(a2-3)Gal(b1-3)GalNAc
In short: as §1

[18] = target: Neu5Ac(a2-3)Gal(b1-3)GalNAc(b1-3)Gal(a1-4)Gal(b1-4)Glc
In short: as §1

[19] = target: Neu5Ac(a2-3)Gal(b1-3)GalNAc(b1-4)Gal(b1-4)Glc
In short: as §1

[20] = target: Neu5Ac(a2-3)Gal(b1-3)GalNAc(b1-4)[Neu5Ac(a2-3)]Gal(b1-4)Glc
In short: as §1

[21] = target: Neu5Ac(a2-3)Gal(b1-3)GalNAc(b1-4)[Neu5Ac(a2-8)Neu5Ac(a2-3)]Gal(b1-4)Glc
In short: as §1

[22] = target: Neu5Ac(a2-3)Gal(b1-3)GalNAc6S
In short: as §1

[23] = target: Neu5Ac(a2-3)Gal(b1-3)GlcNAc
In short: as §1

[24] = target: Neu5Ac(a2-3)Gal(b1-3)GlcNAc(b1-2)Man
In short: as §1

[25] = target: Neu5Ac(a2-3)Gal(b1-3)GlcNAc(b1-2)Man(a1-3)[GlcNAc(b1-4)][Neu5Ac(a2-3)Gal(b1-3)GlcNAc(b1-2)Man(a1-6)]Man(b1-4)GlcNAc(b1-4)GlcNAc
In short: as §1

[26] = target: Neu5Ac(a2-3)Gal(b1-3)GlcNAc(b1-2)Man(a1-3)[Neu5Ac(a2-3)Gal(b1-3)GlcNAc(b1-2)Man(a1-6)]Man(b1-4)GlcNAc(b1-4)GlcNAc
In short: as §1

[27] = target: Neu5Ac(a2-3)Gal(b1-3)GlcNAc(b1-2)[Neu5Ac(a2-3)Gal(b1-3)GlcNAc(b1-4)]Man(a1-6)[Neu5Ac(a2-3)Gal(b1-3)GlcNAc(b1-2)Man(a1-3)]Man(b1-4)GlcNAc(b1-4)GlcNAc
In short: as §1

[28] = target: Neu5Ac(a2-3)Gal(b1-3)GlcNAc(b1-3)Gal(b1-3)GlcNAc
In short: as §1

[29] = target: Neu5Ac(a2-3)Gal(b1-3)GlcNAc(b1-3)Gal(b1-4)GlcNAc
In short: as §1

[30] = target: Neu5Ac(a2-3)Gal(b1-3)GlcNAc(b1-3)GalNAc
In short: as §1

[31] = target: Neu5Ac(a2-3)Gal(b1-3)GlcNAc(b1-6)GalNAc
In short: as §1

[32] = target: Neu5Ac(a2-3)Gal(b1-3)GlcNAc6S
In short: as §1

[33] = target: Neu5Ac(a2-3)Gal(b1-3)[Fuc(a1-4)]GlcNAc
In short: as §1

[34] = target: Neu5Ac(a2-3)Gal(b1-3)[Fuc(a1-4)]GlcNAc(b1-3)Gal(b1-3)[Fuc(a1-4)]GlcNAc
In short: as §1

[35] = target: Neu5Ac(a2-3)Gal(b1-3)[Fuc(a1-4)]GlcNAc(b1-3)Gal(b1-4)[Fuc(a1-3)]GlcNAc
In short: as §1

[36] = target: Neu5Ac(a2-3)Gal(b1-3)[GlcNAc(b1-6)]GalNAc
In short: as §1

[37] = target: Neu5Ac(a2-3)Gal(b1-3)[Neu5Ac(a2-6)]GalNAc
In short: as §1

B1: a L Fucosidase (Thermotoga maritima) (protein)
chain: MASMKPRYKPDWESLREHTVPKWFDKAKFGIFIHWGIYSVPGWATPTGELGKVPMDAWFFQNPYAEWYENSLRIKESPTWEYHVKTYGENFEYEKFADLFTAEKWDPQEWADLFKKAGAKYVIPTTKHHDGFCLWGTKYTDFNSVKRGPKRDLVGDLAKAVREAGLRFGVYYSGGLDWRFTTEPIRYPEDLSYIRPNTYEYADYAYKQVMELVDLYLPDVLWNNMGWPEKGKEDLKYLFAYYYNKHPEGSVNDRWGVPHWDFKTAEYHVNYPGDLPGYKWEFTRGIGLSFGYNRNEGPEHMLSVEQLVYTLVDVVSKGGNLLLNVGPKGDGTIPDLQKERLLGLGEWLRKYGDAIYGTSVWERCCAKTEDGTEIRFTRKCNRIFVIFLGIPTGEKIVIEDLNLSAGTVRHFLTGERLSFKNVGKNLEITVPKKLLETDSITLVLEAVEE
glycan array binding signal (z-score) [1]: 0.714
glycan array binding signal (z-score) [2]: -0.006
glycan array binding signal (z-score) [3]: -0.817
glycan array binding signal (z-score) [4]: -0.333
glycan array binding signal (z-score) [5]: -0.688
glycan array binding signal (z-score) [6]: -0.728
glycan array binding signal (z-score) [7]: 0.332
glycan array binding signal (z-score) [8]: 0.752
glycan array binding signal (z-score) [9]: 0.223
glycan array binding signal (z-score) [10]: 0.156
glycan array binding signal (z-score) [11]: -0.176
glycan array binding signal (z-score) [12]: -0.563
glycan array binding signal (z-score) [13]: 0.901
glycan array binding signal (z-score) [14]: 1.15
glycan array binding signal (z-score) [15]: 0.223
glycan array binding signal (z-score) [16]: -0.808
glycan array binding signal (z-score) [17]: -0.389
glycan array binding signal (z-score) [18]: -0.696
glycan array binding signal (z-score) [19]: -1.2
glycan array binding signal (z-score) [20]: -0.418
glycan array binding signal (z-score) [21]: 0.139
glycan array binding signal (z-score) [22]: -0.204
glycan array binding signal (z-score) [23]: -0.496
glycan array binding signal (z-score) [24]: -0.105
glycan array binding signal (z-score) [25]: 0.126
glycan array binding signal (z-score) [26]: -0.202
glycan array binding signal (z-score) [27]: 1.03
glycan array binding signal (z-score) [28]: -0.874
glycan array binding signal (z-score) [29]: 0.415
glycan array binding signal (z-score) [30]: 0.912
glycan array binding signal (z-score) [31]: -0.019
glycan array binding signal (z-score) [32]: -0.867
glycan array binding signal (z-score) [33]: 0.956
glycan array binding signal (z-score) [34]: -0.851
glycan array binding signal (z-score) [35]: 1.27
glycan array binding signal (z-score) [36]: 0.287
glycan array binding signal (z-score) [37]: -0.253

— the supplement of paper PMC8728848
